The values that follow come from publication PMC7862700.

Sequences of proteins named here, by UniProt entry; tags and fusion partners are left off. A change or cut given only in a name is not applied to a line headed by its entry.
UniProt P41161: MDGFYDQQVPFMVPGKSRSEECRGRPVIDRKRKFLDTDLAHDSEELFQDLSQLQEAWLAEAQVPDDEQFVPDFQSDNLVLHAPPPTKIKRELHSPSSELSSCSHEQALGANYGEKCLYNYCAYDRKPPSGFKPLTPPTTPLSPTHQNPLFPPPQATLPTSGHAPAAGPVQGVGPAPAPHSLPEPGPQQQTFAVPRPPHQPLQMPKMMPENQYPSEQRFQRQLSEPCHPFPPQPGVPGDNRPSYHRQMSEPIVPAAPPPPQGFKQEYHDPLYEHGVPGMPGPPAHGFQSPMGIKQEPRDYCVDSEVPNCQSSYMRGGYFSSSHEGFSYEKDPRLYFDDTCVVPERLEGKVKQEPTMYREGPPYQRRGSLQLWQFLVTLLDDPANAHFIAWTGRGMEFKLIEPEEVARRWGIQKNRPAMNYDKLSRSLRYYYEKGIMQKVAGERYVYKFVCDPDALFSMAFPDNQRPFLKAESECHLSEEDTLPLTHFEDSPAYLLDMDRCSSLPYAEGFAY

Only a part is listed here, and it is no random draw. At the low end of the ranking, values are background and their order means little.

This experiment addresses ETV5 (UniProt P41161). Put plainly: DAPPL (digital affinity profiling via proximity ligation, sequencing). Particulars: 10 mM Tris-HCl pH 7.5, 50 mM NaCl, 1 mM DTT, 4% glycerol, room temperature, 30 min; GST-TFs on glutathione beads, 16-mer random dsDNA library, 0.1% …; high values mean tight binding; double strand, one strand shown; scale: fold enrichment (6-mer frequency, TF over GST control).
Turning to CTCACG, the binding signal came to 1.4.
With TCCACG, the binding signal was 1.04.
TGCCTT returned a binding signal of 1.36.
For the sequence TATCAC, the binding signal was determined as 1.24.
Turning to CATGTT, the binding signal is 1.03.
In turn, AAACTT had a binding signal of 1.22.
Regarding CCCGCT, the binding signal amounted to 1.32.
To TTATAT belongs 1.26; to AGCCTA, 1.09; to TGATTA, 0.974.
CCTTAC registered a binding signal of 1.36.
CCCCCC had a binding signal of 1.09.
As for TGAATA, the binding signal worked out at 1.13.
To CCTGCC belongs 1.34.
In turn, ACGCAC showed a binding signal of 1.09.
Under CTTGAA stands 1.09; under TATTTA, 1.47.
Consider CCTTAG, for which the binding signal was 1.18.
On to TCCACC, for which the binding signal stood at 1.16.
Sequence CTTGCT displayed a binding signal of 1.39.
Take GAAATT: the binding signal was determined as 1.36.
Under ATCCGG stands 2.87; under GCCTCT, 1.39.
ACTCCA showed a binding signal of 1.24.
On to GTCTCC, for which the binding signal came out at 1.46.
As to CTTAGC, the binding signal is 1.18.
In turn, GCTCAT had a binding signal of 1.19.
ATTCGA returned a binding signal of 1.28.
For CCTTTG, the binding signal stood at 1.3.
For ACTGCA, the binding signal amounted to 1.2.
Take CTGCTC: the binding signal came to 1.26.
In the case of AAACGC, the binding signal worked out at 1.28.
Sequence TGTACC registered a binding signal of 1.4.
Under TACCGG stands 1.68.
Under CGAGCA stands 1.1; under ATAAAA, 1.12.
ACACCC had a binding signal of 1.08.
CGATGT had a binding signal of 1.1.
TTAATC registered a binding signal of 1.23.
ATTAAA: the binding signal was 1.2.
